According to patent publication US20230227838A1, “ENHANCED CELL SURVIVAL AGAINST BIOTIC AND ABIOTIC STRESSES THROUGH SALICYLICK ACID-INDUCED NPR1 CONDENSATES” (priority 2020, published 2023):

System: sim3-GFP
Test: Quantitative LC-MS/MS of sim3-GFP interactome (SINC components)
Design: species or system Arabidopsis thaliana
Conditions: protein enrichment in the sim3-GFP interactome (SINC components), SA-treated samples versus mock

Q: AT5G54310 was tested. Which “Normalized Fold Change: SA vs Mock” value did it give?
A: Its value is 8.653.

Q: With AT3G13870 as the substance, how does the “Normalized Fold Change: SA vs Mock” value read?
A: Its value is 2.859.

Q: How did the “Normalized Fold Change: SA vs Mock” value turn out when AT3G06720 was run?
A: Its value is 2.092.

Q: With AT2G26560 as the substance, how does the “Normalized Fold Change: SA vs Mock” value read?
A: Its value is 3.961.
